This is an account of results in PMC11771213 (International Journal of Molecular Sciences, 2025).

This data set in a line: peptide made by a vendor. Particulars: whole synthesis.

No end group written: not given here.

Take TPVVVPPFL: the outcome is “proved to be resistant to both synthetic purification and production”.
